Results published in patent US12612343B2, “PSMA binder and use thereof” (priority 2020, dated 2026).
Some entries share one result that the patent states for a list of compounds.

Amino acid sequences for entries named in this document (tags omitted).
UniProt Q04609, whole entry: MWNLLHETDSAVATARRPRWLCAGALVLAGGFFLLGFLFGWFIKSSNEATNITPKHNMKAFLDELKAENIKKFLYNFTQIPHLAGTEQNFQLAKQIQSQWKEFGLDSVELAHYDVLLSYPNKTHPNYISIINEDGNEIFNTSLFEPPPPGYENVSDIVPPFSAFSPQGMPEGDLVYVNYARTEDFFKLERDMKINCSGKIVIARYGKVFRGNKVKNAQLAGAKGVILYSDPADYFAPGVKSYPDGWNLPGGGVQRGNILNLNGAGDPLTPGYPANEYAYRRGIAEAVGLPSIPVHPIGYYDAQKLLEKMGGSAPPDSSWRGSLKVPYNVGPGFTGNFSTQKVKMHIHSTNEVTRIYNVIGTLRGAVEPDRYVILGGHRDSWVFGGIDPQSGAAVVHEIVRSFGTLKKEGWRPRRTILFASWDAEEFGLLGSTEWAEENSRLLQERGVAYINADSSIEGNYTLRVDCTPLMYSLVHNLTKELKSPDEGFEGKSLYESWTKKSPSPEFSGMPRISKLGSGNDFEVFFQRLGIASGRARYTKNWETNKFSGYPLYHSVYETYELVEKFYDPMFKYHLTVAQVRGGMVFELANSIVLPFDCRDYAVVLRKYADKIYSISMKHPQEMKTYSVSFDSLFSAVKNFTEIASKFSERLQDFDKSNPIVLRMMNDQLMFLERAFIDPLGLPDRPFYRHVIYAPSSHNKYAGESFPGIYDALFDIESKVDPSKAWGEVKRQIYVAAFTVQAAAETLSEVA

Biological target: PSMA protein (Homo sapiens, UniProt Q04609)
Assay: Affinity assay by Surface Plasmon Resonance (SPR)
Assay type: binding
Conditions: beyond the detection limit of the instrument
Description: The binding capacity of HYNIC-PSMA-XL-2 and HYNIC-PSMA-XL-3 to PSMA protein was determined by Surface Plasmon Resonance (SPR).

| kd (dissociation) | SMILES |
| --- | --- |
| < 1E-6 | NNc1ccc(C(=O)NC(CCC(=O)O)C(=O)NC(CCC(=O)O)C(=O)NCc2ccc(C(=O)NC(Cc3ccc4ccccc4c3)C(=O)NCCCCC(NC(=O)NC(CCC(=O)O)C(=O)O)C(=O)O)cc2)cn1 (stereo not drawn) [HYNIC-PSMA-XL-2, Glu-Urea-Lys-2Nal-AMB-Glu-Glu-HYNIC] |
| < 1E-6 | NNc1ccc(C(=O)NC(CCC(=O)O)C(=O)NCc2ccc(C(=O)NC(Cc3ccc4ccccc4c3)C(=O)NCCCCC(NC(=O)NC(CCC(=O)O)C(=O)O)C(=O)O)cc2)cn1 (centres unmarked) [HYNIC-PSMA-XL-3, Glu-Urea-Lys-2Nal-AMB-Glu-HYNIC] |
